Test results as given in PMC11655906.
No constants are given. Whether binding was seen depends on the method and setting. Some results given as binding are weak or reduced against the parent protein; the word gives no strength. One block for each binder: values may come before it.

Experiments:
Assay in all cases: native gel or EMSA; native PAGE (4-16% Bis-Tris, G-250 additive) of lysates of transfected Fwe KO mouse CTLs (modified RIPA: 50 mM Tris pH 7.5, 50 mM NaCl, 1% Triton-X-100, 1 mM EDTA), western blot with anti-DsRed recognising mTFP; oligomeric state read from band size
[1] = target: mFwe2(YRWL to AAAA)-mTFP (mouse) (UniProt Q8BG21)
[2] = target: mFwe2(Y104A)-mTFP (mouse) (UniProt Q8BG21)
[3] = target: mFwe2(Y104F)-mTFP (mouse) (UniProt Q8BG21)
mFwe2(E74A)-mTFP (mouse) = mFwe2(E74A)-mTFP (mouse) (UniProt Q8BG21)
[4] = target: human Flower isoform 3 with C-terminal mTFP (hFwe3-mTFP) (human) (UniProt Q9UGQ2)
[5] = target: dUbi(Y109A)-mTFP (Drosophila) (UniProt Q95T12)

B1: mFwe2(YRWL to AAAA)-mTFP (protein, UniProt Q8BG21-1 1-171)
chain: MSGSGAAGAAAGPAPPAQEEGMTWWAAAACRLAGVLGAVSCAISGLFNCVTIHPLNIAAGVWMIMNAFILLLCEAPFCCQFVEFANTVAEKVDRLRSWQKAVFYCGMAIVPIVMSLTLTTLLGNAIAFATGVLYGLSALGKKGDAISYARIQQQRQQADEEKLAETFEGEL
- binding [1]: binds

B2: mFwe2(Y104A)-mTFP (protein, UniProt Q8BG21-1 1-171)
chain: MSGSGAAGAAAGPAPPAQEEGMTWWYRWLCRLAGVLGAVSCAISGLFNCVTIHPLNIAAGVWMIMNAFILLLCEAPFCCQFVEFANTVAEKVDRLRSWQKAVFACGMAIVPIVMSLTLTTLLGNAIAFATGVLYGLSALGKKGDAISYARIQQQRQQADEEKLAETFEGEL
- binding [2]: binds

B4: mFwe2(E74A)-mTFP (protein, UniProt Q8BG21-1 1-171)
chain: MSGSGAAGAAAGPAPPAQEEGMTWWYRWLCRLAGVLGAVSCAISGLFNCVTIHPLNIAAGVWMIMNAFILLLCAAPFCCQFVEFANTVAEKVDRLRSWQKAVFYCGMAIVPIVMSLTLTTLLGNAIAFATGVLYGLSALGKKGDAISYARIQQQRQQADEEKLAETFEGEL
- binding (mFwe2(E74A)-mTFP (mouse)): binds

B5: human Flower isoform 3 with C-terminal mTFP (hFwe3-mTFP) (protein, UniProt Q9UGQ2-2 1-130)
chain: MSSSGGAPGASASSAPPAQEEGMTWWYRWLCRLSGVLGAVSCAISGLFNCITIHPLNIAAGVWMMMAVVPIVISLTLTTLLGNAIAFATGVLYGLSALGKKGDAISYARIQQQRQQADEEKLAETLEGEL
- binding [4]: binds

The next lines start with the values.

- binding [3]: binds
B3: mFwe2(Y104F)-mTFP (protein, UniProt Q8BG21-1 1-171)
chain: MSGSGAAGAAAGPAPPAQEEGMTWWYRWLCRLAGVLGAVSCAISGLFNCVTIHPLNIAAGVWMIMNAFILLLCEAPFCCQFVEFANTVAEKVDRLRSWQKAVFFCGMAIVPIVMSLTLTTLLGNAIAFATGVLYGLSALGKKGDAISYARIQQQRQQADEEKLAETFEGEL

- binding [5]: binds
B6: dUbi(Y109A)-mTFP (protein, UniProt Q95T12-1 1-194)
chain: MSFAEKITGLLARPNQQDPIGPEQPWYLKYGSRLLGIVAAFFAILFGLWNVFSIITLSVSCLVAGILQMVAGFVVMLLEAPCCFVCFGQVNEIAEKVESKPLYFRAGLAIAMAIPPIILCFGLASLFGSGLIFGTGVVYGMMALGKKASAEDMRAAAQQTFGGNTPAQTNDRAGIVNNAQPFSFTGAVGTDSNV
